Laboratory results: publication PMC11022708
These are yes or no findings as the source states them, for the method shown. Binding seen in cells or lysates may run through a third protein. A yes stands for co-enrichment or nearness to the bait. Other partners may have been found.

Amino acid sequences for entries named in this document (tags omitted).
UniProt O60828: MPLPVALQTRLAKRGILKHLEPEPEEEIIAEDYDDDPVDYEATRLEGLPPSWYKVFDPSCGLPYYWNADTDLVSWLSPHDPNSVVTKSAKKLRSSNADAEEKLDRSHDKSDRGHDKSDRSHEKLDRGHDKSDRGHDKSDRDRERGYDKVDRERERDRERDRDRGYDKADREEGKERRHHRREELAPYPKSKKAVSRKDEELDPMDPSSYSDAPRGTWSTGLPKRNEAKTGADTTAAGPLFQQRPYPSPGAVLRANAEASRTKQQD
UniProt O75533: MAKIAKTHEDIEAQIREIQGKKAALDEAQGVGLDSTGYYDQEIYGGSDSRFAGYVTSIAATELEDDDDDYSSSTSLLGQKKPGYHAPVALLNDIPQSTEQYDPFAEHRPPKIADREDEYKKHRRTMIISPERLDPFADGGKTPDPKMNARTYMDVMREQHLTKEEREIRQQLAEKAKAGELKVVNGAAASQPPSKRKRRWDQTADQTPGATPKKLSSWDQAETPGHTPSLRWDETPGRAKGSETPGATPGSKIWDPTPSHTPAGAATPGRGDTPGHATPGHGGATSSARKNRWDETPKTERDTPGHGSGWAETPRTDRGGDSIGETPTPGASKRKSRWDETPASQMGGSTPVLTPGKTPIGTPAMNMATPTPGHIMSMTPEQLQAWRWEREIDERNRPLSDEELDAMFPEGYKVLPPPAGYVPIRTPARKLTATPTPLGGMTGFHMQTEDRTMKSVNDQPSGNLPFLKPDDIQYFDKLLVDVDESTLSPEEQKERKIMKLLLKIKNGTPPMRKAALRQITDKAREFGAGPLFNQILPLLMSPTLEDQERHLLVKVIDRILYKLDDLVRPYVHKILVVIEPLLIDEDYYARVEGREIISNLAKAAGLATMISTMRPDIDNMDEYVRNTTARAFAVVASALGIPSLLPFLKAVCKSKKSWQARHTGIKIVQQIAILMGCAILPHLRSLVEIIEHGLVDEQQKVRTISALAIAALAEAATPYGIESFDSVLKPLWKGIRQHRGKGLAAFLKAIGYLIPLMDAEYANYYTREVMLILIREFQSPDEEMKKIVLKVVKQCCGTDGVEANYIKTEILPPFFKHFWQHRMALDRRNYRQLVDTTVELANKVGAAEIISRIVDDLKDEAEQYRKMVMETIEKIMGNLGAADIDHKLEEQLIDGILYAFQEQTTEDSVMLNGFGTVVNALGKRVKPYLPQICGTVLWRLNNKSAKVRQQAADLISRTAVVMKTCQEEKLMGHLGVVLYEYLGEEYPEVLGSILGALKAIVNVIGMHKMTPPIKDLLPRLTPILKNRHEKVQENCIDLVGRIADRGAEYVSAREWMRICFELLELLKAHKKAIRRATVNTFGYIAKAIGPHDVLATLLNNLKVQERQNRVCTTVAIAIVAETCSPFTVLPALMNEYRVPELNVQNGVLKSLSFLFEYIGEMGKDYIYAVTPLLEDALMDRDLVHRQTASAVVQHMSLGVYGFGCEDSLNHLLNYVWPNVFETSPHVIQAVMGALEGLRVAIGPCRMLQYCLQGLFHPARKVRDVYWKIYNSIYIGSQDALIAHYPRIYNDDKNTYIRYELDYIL
UniProt Q9Y2W2: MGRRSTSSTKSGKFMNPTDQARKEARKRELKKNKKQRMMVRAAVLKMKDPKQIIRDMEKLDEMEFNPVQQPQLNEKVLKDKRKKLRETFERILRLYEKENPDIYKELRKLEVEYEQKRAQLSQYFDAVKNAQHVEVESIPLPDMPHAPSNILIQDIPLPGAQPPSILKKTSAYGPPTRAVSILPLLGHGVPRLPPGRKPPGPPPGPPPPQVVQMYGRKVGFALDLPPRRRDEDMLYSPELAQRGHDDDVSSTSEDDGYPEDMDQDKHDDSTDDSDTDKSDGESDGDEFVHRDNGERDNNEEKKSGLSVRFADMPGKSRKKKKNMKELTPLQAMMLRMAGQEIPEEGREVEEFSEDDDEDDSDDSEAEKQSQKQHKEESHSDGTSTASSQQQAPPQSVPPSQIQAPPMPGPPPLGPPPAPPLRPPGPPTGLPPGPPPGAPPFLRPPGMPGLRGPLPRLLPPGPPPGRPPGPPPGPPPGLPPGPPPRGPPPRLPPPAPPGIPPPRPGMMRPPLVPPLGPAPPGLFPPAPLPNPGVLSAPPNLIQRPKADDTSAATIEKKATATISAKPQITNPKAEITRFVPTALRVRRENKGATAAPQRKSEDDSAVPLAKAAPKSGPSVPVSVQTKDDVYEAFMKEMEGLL

Molecular target: FLAG-tagged PQBP1 (polyglutamine binding protein-1) (UniProt O60828)
Test: affinity purification with mass spectrometry; FLAG-tagged PQBP1 precipitated from HEY whole-cell extracts (WIP buffer) with FLAG antibody and magnetic Protein A/G beads overnight at 4 °C; beads washed three times; bands cut from a Coomassie-stained SDS-PAGE gel and analysed by LC-MS/MS

Substance	binding
SF3B1 (from UniProt O75533 1-1304)	binds
WBP11 (from UniProt Q9Y2W2 1-641)	binds
